According to patent US20230009539A1:
These are yes or no findings as the source states them, for the method shown. For some assays here: In cells and extracts the contact can be indirect. Some entries that bind do so weakly or less than the wild type. For some assays here: Tags and fused reporters may be left off the sequences shown. Blank lines part the entries; values can stand above or below the binder they belong to.

Protein sequences, listed by entry. Tags and fused reporters are not part of them.
UniProt O43734: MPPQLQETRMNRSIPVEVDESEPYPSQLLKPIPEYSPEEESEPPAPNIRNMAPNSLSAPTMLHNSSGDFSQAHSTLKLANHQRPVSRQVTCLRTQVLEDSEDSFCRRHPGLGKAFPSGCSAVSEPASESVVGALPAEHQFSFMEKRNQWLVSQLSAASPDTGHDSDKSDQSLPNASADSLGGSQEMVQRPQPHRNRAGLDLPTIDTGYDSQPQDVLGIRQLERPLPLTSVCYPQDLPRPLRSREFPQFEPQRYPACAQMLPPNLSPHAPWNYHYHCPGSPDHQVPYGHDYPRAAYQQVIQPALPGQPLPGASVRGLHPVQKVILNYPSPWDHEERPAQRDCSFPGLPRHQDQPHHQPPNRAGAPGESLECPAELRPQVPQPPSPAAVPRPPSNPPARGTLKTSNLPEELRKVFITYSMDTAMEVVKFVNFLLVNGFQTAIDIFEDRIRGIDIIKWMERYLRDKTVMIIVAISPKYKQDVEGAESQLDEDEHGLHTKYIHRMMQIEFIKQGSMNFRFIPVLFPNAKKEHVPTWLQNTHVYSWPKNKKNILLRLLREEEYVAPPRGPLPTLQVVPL

Tests used:
FLAG-hAct1 (human) = FLAG-hAct1 (human) (UniProt O43734); experiment: co-purification on anti-FLAG/M2 beads from transfected HeLa cells, Western blot
[1] = target: FLAG-hDcp2 (human), Q8IU60; experiment: anti-FLAG co-immunoprecipitation from HeLa cells transfected with V5-Dcp1, FLAG-Dcp2 and/or HA-TBK1 (FIG. 4G); conditions: remark: other sources report otherwise
[2] = target: FLAG-hDcp2 (human), Q8IU60; experiment: co-immunoprecipitation with anti-FLAG from HeLa cells transfected with V5-Dcp1, FLAG-Dcp2 and rising HA-TBK1, V5 blot; conditions: remark: other sources report otherwise
[3] = target: T1, Dcp1 (endogenous, MEFs) (mouse (MEFs)) (UniProt Q91YD3); experiment: co-immunoprecipitation with anti-FLAG from Act1-/- MEFs reconstituted with FLAG-Act1 WT, IL-17 lanes 0, .5, 1, 2, 3 (sheet prints 'min'), Western blot
T1 sequence (looked up): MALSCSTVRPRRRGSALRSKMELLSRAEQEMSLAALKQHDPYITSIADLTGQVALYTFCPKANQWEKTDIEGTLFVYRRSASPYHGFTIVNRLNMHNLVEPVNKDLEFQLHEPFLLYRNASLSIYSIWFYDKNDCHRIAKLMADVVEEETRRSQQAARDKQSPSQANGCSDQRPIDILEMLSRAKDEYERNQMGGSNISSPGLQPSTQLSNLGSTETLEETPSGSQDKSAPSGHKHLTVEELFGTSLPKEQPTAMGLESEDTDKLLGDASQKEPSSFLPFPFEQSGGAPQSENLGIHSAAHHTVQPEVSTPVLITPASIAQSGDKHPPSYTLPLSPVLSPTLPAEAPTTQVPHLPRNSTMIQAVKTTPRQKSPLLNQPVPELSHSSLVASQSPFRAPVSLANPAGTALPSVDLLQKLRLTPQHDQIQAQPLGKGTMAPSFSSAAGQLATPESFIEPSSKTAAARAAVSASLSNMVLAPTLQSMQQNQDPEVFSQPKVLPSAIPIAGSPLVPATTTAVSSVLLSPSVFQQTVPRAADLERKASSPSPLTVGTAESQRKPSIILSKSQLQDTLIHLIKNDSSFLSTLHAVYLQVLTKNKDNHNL

[4] = target: T2, TBK1 (endogenous, MEFs) (mouse (MEFs)) (UniProt Q9WUN2); experiment: co-immunoprecipitation with anti-FLAG from cytoplasmic and nuclear fractions of Act1-/- MEFs with FLAG-Act1 WT, IL-17 lanes 0, 30, 60, 180 (unit not given), Western blot
T2 sequence (looked up): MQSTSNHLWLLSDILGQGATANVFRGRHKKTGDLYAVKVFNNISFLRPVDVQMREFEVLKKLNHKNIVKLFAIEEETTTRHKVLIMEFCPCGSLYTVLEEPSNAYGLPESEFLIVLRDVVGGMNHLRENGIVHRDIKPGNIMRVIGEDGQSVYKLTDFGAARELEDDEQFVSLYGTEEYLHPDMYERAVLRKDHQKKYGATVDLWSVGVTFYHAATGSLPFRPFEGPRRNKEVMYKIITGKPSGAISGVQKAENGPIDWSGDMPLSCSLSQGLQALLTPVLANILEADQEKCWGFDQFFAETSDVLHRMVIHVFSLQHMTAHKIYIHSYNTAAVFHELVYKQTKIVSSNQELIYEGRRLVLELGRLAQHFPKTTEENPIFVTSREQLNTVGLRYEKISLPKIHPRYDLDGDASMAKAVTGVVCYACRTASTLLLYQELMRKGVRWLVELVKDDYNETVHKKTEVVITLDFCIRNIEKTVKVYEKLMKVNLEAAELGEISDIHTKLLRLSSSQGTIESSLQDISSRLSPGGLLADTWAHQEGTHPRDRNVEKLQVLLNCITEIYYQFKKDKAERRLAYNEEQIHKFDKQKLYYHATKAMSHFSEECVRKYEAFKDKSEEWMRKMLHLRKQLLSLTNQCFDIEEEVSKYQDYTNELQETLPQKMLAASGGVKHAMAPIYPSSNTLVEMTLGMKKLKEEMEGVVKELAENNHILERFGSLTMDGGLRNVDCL

[5] = target: T3, IKKi (endogenous, MEFs) (mouse (MEFs)) (UniProt Q9R0T8); experiment: as above
T3 sequence (looked up): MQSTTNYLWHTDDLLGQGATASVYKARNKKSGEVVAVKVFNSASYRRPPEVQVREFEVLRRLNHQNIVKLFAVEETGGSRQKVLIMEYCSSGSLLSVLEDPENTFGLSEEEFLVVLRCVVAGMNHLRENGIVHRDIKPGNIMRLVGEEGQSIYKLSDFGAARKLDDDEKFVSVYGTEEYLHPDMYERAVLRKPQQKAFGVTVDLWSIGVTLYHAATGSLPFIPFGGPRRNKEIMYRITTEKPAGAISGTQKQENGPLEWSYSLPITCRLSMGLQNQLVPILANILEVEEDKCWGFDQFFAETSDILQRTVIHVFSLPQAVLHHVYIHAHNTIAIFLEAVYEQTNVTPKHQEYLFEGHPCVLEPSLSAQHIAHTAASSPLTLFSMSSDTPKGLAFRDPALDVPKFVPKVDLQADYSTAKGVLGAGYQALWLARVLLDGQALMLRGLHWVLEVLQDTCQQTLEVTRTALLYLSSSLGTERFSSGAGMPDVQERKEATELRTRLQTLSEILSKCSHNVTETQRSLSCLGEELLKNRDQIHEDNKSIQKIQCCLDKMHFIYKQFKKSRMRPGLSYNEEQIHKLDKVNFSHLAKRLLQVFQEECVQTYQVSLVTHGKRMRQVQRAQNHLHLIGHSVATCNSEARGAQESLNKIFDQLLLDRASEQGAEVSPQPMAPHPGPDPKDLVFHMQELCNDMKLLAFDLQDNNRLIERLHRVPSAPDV

[6] = target: T2, TBK1 (endogenous, MEFs) (mouse (MEFs)); experiment: co-immunoprecipitation with anti-TBK1 from Act1-/- MEFs reconstituted with wild-type Act1, IL-17 0, 15, 30, 60 min, Western blot
[7] = target: T1, Dcp1 (endogenous, MEFs) (mouse (MEFs)); experiment: co-immunoprecipitation with anti-Dcp1 from untreated and IL-17-treated Act1-expressing MEFs
[8] = target: T2, TBK1 (endogenous, MEFs) (mouse (MEFs)); experiment: co-immunoprecipitation of Act1 from MEFs, IL17 0, 15, 30, 60, 180 min, with DMSO or the inhibitor MRT67307, Western blot
[9] = target: T1, Dcp1 (endogenous, MEFs) (mouse (MEFs)); experiment: as above
[10] = target: T1, Dcp1 (endogenous, MEFs) (mouse (MEFs)); experiment: anti-Act1 immunoprecipitation from MEFs, IL-17, with or without MRT67307 (FIG. 4H)

binding (FLAG-hAct1 (human)): binds
B1: TBK1 (endogenous, HeLa cells) (enzyme, human (HeLa cells), UniProt Q9UHD2 1-729, looked up)
chain: MQSTSNHLWLLSDILGQGATANVFRGRHKKTGDLFAIKVFNNISFLRPVDVQMREFEVLKKLNHKNIVKLFAIEEETTTRHKVLIMEFCPCGSLYTVLEEPSNAYGLPESEFLIVLRDVVGGMNHLRENGIVHRDIKPGNIMRVIGEDGQSVYKLTDFGAARELEDDEQFVSLYGTEEYLHPDMYERAVLRKDHQKKYGATVDLWSIGVTFYHAATGSLPFRPFEGPRRNKEVMYKIITGKPSGAISGVQKAENGPIDWSGDMPVSCSLSRGLQVLLTPVLANILEADQEKCWGFDQFFAETSDILHRMVIHVFSLQQMTAHKIYIHSYNTATIFHELVYKQTKIISSNQELIYEGRRLVLEPGRLAQHFPKTTEENPIFVVSREPLNTIGLIYEKISLPKVHPRYDLDGDASMAKAITGVVCYACRIASTLLLYQELMRKGIRWLIELIKDDYNETVHKKTEVVITLDFCIRNIEKTVKVYEKLMKINLEAAELGEISDIHTKLLRLSSSQGTIETSLQDIDSRLSPGGSLADAWAHQEGTHPKDRNVEKLQVLLNCMTEIYYQFKKDKAERRLAYNEEQIHKFDKQKLYYHATKAMTHFTDECVKKYEAFLNKSEEWIRKMLHLRKQLLSLTNQCFDIEEEVSKYQEYTNELQETLPQKMFTASSGIKHTMTPIYPSSNTLVEMTLGMKKLKEEMEGVVKELAENNHILERFGSLTMDGGLRNVDCL

binding [1]: binds
binding [2]: binds
B2: V5-hDcp1a, Q9NPI6 1-582 (enzyme, human, UniProt Q9NPI6 1-582, looked up, not shown: small tags and cut ends)
chain: MEALSRAGQEMSLAALKQHDPYITSIADLTGQVALYTFCPKANQWEKTDIEGTLFVYRRSASPYHGFTIVNRLNMHNLVEPVNKDLEFQLHEPFLLYRNASLSIYSIWFYDKNDCHRIAKLMADVVEEETRRSQQAARDKQSPSQANGCSDHRPIDILEMLSRAKDEYERNQMGDSNISSPGLQPSTQLSNLGSTETLEEMPSGSQDKSAPSGHKHLTVEELFGTSLPKEQPAVVGLDSEEMERLPGDASQKEPNSFLPFPFEQLGGAPQSETLGVPSAAHHSVQPEITTPVLITPASITQSNEKHAPTYTIPLSPVLSPTLPAEAPTAQVPPSLPRNSTMMQAVKTTPRQRSPLLNQPVPELSHASLIANQSPFRAPLNVTNTAGTSLPSVDLLQKLRLTPQHDQIQTQPLGKGAMVASFSPAAGQLATPESFIEPPSKTAAARVAASASLSNMVLAPLQSMQQNQDPEVFVQPKVLSSAIPVAGAPLVTATTTAVSSVLLAPSVFQQTVTRSSDLERKASSPSPLTIGTPESQRKPSIILSKSQLQDTLIHLIKNDSSFLSTLHEVYLQVLTKNKDNHNL

binding [3]: binds
binding [4]: binds
binding [5]: binds
binding [6]: binds
binding [7]: binds
B3: FLAG-tagged mouse wild-type Act1 (WT) (protein, UniProt Q8N7N6 1-555, looked up, not shown: small tags and cut ends)
chain: MNRSIPVEVDESEPFPSQLLKPIPEYSPEEELEPPAPNTRNMAPSSLSVLQCPPLKLANHQPVSQQVTCLRAKVLEEGEASFFRRHPELGKDISSCSSGASEPESELGALPPEHRFTLTEKRNRWLGSQLSAASPDTGHESDKSDPSLPNALADSFSGGQEMMPRPRPRPGPHRHRAAPDVPTIDTGYDSQPQDVLGIRQLERPLPLTSSCYLQDLPGPLRSRELPPQFELERYPMNAQLLPPHPSPQAPWNCQYYCPGGPYHHQVPHGHGYPPAAAYQQVLQPALPGQVLPGARARGPRPVQKVILNDSSPQDQEERPAQRDFSFPRLPRDQLYRPPSNGVEAPEESLDLPAELRPHGPQAPSLAAVPRPPSNPLARGTLRTSNLPEELRKVFITYSMDTAMEVVKFVNFLLVNGFQTAIDIFEDRIRGIDIIKWMERYLRDKTVMIIVAISPKYKQDVEGAESQLDEDEHGLHTKYIHRMMQIEFISQGSMNFRFIPVLFPNAKKEHVPTWLQNTHVYSWPKNKKNILLRLLREEEYVAPPRGPLPTLQVVPL

binding [8]: binds
binding [9]: binds
binding [10]: binds
B4: Act1 (MEFs, immunoprecipitated with anti-Act1) (protein, mouse (MEFs), UniProt Q8N7N6 1-555, looked up)
chain: MNRSIPVEVDESEPFPSQLLKPIPEYSPEEELEPPAPNTRNMAPSSLSVLQCPPLKLANHQPVSQQVTCLRAKVLEEGEASFFRRHPELGKDISSCSSGASEPESELGALPPEHRFTLTEKRNRWLGSQLSAASPDTGHESDKSDPSLPNALADSFSGGQEMMPRPRPRPGPHRHRAAPDVPTIDTGYDSQPQDVLGIRQLERPLPLTSSCYLQDLPGPLRSRELPPQFELERYPMNAQLLPPHPSPQAPWNCQYYCPGGPYHHQVPHGHGYPPAAAYQQVLQPALPGQVLPGARARGPRPVQKVILNDSSPQDQEERPAQRDFSFPRLPRDQLYRPPSNGVEAPEESLDLPAELRPHGPQAPSLAAVPRPPSNPLARGTLRTSNLPEELRKVFITYSMDTAMEVVKFVNFLLVNGFQTAIDIFEDRIRGIDIIKWMERYLRDKTVMIIVAISPKYKQDVEGAESQLDEDEHGLHTKYIHRMMQIEFISQGSMNFRFIPVLFPNAKKEHVPTWLQNTHVYSWPKNKKNILLRLLREEEYVAPPRGPLPTLQVVPL
